The entries are a selection whose mix differs from that of the whole data set. At the low end of the ranking, values are background and their order means little.

In the experiment the target is SPI1 (UniProt P17947). As to the kind of experiment: DAPPL (digital affinity profiling via proximity ligation, sequencing). The note with it: 10 mM Tris-HCl pH 7.5, 50 mM NaCl, 1 mM DTT, 4% glycerol, room temperature, 30 min; GST-TFs on glutathione beads, 16-mer random dsDNA library, 0.1% …; high values mean tight binding; double strand, one strand shown; scale: fold enrichment (6-mer frequency, TF over GST control).
The sequence GGCATC gave a binding signal of 0.799.
The figure for GTCAGA is 0.71.
The figure for CCTGTC is 0.876.
The figure for GAGCCT is 0.841.
TGGACG registered a binding signal of 0.823.
GGAGTG: the binding signal came to 0.413.
To TCAGGC belongs 0.707; to GTCCAG, 0.676.
The figure for GCCGGT is 0.665; for GTGGCG it is 0.861; for CAACGT it is 0.805.
The figure for ACGCAT is 0.766; for GGTGGA it is 0.579; for GTGAAA it is 0.839.
The sequence CGTGAC gave a binding signal of 0.522.
To CATGTC belongs 0.791; to ACGTAG, 0.757; to AAGCCA, 0.784.
The figure for AGGTTA is 0.726; for GGCAAC it is 0.88; for GGACAC it is 0.754.
To TGCCGT belongs 0.786; to CACCGT, 0.629; to GGCCCA, 0.859.
The sequence GAGTCC registered a binding signal of 0.346.
To GGTGAC belongs 0.819; to GGGTGG, 0.73.
Turning to GCGGGG, the binding signal was found to be 0.458.
To TGTCGA belongs 0.858; to GGAGTC, 0.21.
To GTCGGC belongs 0.388; to GAGCCC, 0.725.
To GCGTGG belongs 0.527; to GGCCAA, 0.833; to TGAGCA, 0.748.
CGTGTG yielded a binding signal of 0.413.
As for GTTGTG, the binding signal came out at 0.861.
In turn, GGGTTG displayed a binding signal of 0.803.
The figure for CCAGAG is 0.673; for CCGGGA it is 0.464.

These data come from article PMC7862700.
